Measurements from paper doi:10.1101/484709.
No constants are given. Whether binding was seen depends on the method and setting. Binding seen in cells or lysates may run through a third protein. Some results given as binding are weak or reduced against the parent protein; the word gives no strength.

The chains behind the UniProt entries cited, without tags or fusion partners.
UniProt Q99558: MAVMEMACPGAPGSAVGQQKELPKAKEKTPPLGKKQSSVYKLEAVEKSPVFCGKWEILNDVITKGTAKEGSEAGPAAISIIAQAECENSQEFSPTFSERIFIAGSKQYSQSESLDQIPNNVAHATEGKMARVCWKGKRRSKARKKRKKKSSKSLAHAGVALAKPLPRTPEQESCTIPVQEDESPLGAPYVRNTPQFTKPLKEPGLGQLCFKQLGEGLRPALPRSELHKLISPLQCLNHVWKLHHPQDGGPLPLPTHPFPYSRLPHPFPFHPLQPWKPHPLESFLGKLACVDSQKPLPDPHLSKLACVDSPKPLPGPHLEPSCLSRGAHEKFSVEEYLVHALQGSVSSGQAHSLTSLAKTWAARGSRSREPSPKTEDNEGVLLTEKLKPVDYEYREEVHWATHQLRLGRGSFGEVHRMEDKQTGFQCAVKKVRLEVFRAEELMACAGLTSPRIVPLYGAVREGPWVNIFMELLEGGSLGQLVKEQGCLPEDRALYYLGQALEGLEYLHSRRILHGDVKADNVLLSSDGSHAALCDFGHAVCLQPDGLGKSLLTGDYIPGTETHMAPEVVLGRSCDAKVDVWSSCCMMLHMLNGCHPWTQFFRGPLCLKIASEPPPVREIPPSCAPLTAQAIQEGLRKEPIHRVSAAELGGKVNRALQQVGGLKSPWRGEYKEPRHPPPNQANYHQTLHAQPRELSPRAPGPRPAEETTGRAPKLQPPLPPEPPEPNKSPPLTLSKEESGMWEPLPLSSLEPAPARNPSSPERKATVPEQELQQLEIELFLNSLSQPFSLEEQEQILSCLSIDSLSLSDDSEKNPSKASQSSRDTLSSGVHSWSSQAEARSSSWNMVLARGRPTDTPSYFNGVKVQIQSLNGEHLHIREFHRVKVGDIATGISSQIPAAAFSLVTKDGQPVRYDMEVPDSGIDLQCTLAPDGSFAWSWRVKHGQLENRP

Target: NF-kappa-B-inducing kinase (human (endogenous in Jurkat cells and PBMC)) (UniProt Q99558)
Assay: co-IP

B1: FK506-binding protein 51 (protein, UniProt Q13451 1-457)
chain: MTTDEGAKNNEESPTATVAEQGEDITSKKDRGVLKIVKRVGNGEETPMIGDKVYVHYKGKLSNGKKFDSSHDRNEPFVFSLGKGQVIKAWDIGVATMKKGEICHLLCKPEYAYGSAGSLPKIPSNATLFFEIELLDFKGEDLFEDGGIIRRTKRKGEGYSNPNEGATVEIHLEGRCGGRMFDCRDVAFTVGEGEDHDIPIGIDKALEKMQREEQCILYLGPRYGFGEAGKPKFGIEPNAELIYEVTLKSFEKAKESWEMDTKEKLEQAAIVKEKGTVYFKGGKYMQAVIQYGKIVSWLEMEYGLSEKESKASESFLLAAFLNLAMCYLKLREYTKAVECCDKALGLDSANEKGLYRRGEAQLLMNEFESAKGDFEKVLEVNPQNKAARLQISMCQKKAKEHNERDRRIYANMFKKFAEQDAKEEANKAMGKKTSEGVTNEKGTDSQAMEEEKPEGHV
In the case of B1, the binding is reported as “binds”.
